The data set has as its system PbTCP4 (Pyrus bretschneideri). The data set is described as follows: EMSA. Conditions: EMSA as described by Zheng et al. [47], pH and temperature not stated, three independent repeats, recombinant protein, label: 3' biotin.

For at least one entry, the source does not settle the construct or the ends of the probe. Weaker means in comparison with the reference protein, sequence or condition of that experiment.

Take “ACATGCAGGACCACTCACAGACATGCAGGACCACTCACAGACATGCAGGACCACTCACAGACATGCAGGACCACTCACAG (double strand) [PbVND7 promoter probe (PbVND7-Bio-3')]”: the binding result is reported as “binds”. Besides, the binding result (preincubated with PbXND1-HIS (P2), DNA binding of PbTCP4 compromised) is “binds more weakly”.

(Values after article PMC9369282.)
